Measurements as given in the supplement of paper PMC10849652.
The list shows a part of the results.

The chains behind the UniProt entries cited, without tags or fusion partners. Where a name states a change or a piece, a line headed by the entry shows the natural chain unless it says otherwise.
UniProt P08603, whole entry, looked up: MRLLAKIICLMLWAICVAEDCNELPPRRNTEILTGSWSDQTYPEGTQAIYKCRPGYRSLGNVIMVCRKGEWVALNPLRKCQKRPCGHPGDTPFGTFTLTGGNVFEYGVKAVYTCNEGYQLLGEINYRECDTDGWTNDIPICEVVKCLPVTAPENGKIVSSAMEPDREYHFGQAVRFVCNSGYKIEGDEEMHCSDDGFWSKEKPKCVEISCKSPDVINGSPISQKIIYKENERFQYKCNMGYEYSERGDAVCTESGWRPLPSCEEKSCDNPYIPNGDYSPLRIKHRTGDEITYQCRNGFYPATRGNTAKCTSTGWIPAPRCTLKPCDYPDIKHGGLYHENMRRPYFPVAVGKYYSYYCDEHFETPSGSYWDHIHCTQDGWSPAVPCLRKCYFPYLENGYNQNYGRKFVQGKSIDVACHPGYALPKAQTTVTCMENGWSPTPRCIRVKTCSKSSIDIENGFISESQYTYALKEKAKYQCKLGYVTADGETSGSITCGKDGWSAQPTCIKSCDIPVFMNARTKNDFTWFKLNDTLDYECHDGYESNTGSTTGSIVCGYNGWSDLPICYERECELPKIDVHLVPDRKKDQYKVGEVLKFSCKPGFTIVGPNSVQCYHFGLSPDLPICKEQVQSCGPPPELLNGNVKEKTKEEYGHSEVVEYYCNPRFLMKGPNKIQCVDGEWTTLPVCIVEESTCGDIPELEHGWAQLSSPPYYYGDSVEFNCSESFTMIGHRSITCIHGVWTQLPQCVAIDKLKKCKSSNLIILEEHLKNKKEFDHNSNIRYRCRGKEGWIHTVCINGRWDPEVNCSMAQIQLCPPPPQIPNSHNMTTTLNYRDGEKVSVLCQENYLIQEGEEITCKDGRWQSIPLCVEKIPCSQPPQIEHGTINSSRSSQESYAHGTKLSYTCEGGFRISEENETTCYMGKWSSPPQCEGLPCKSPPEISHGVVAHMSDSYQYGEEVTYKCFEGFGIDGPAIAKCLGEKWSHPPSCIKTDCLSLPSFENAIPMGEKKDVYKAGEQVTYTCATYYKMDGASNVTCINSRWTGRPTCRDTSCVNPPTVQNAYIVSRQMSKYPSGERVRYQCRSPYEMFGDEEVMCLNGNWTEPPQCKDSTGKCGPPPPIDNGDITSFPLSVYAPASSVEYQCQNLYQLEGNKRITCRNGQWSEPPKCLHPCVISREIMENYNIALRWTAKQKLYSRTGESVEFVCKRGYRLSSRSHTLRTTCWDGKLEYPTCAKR
UniProt Q9UEE9, whole entry, looked up: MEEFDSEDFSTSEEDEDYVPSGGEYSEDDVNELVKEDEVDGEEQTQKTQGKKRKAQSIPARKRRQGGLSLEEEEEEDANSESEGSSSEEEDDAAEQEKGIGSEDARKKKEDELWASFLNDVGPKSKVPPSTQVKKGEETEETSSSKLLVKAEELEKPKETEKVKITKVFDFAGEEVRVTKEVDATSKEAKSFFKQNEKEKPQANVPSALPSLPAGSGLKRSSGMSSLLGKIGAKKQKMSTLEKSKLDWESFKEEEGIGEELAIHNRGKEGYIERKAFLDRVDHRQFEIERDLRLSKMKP
UniProt Q99618: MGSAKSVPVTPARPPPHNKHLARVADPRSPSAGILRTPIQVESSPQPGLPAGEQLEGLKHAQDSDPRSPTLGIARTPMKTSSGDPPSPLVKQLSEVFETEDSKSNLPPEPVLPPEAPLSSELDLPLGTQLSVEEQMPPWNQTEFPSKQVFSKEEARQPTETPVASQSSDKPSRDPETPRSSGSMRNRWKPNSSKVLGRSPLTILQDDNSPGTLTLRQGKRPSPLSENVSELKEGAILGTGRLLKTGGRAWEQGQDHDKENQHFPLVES
UniProt P60953, whole entry, looked up: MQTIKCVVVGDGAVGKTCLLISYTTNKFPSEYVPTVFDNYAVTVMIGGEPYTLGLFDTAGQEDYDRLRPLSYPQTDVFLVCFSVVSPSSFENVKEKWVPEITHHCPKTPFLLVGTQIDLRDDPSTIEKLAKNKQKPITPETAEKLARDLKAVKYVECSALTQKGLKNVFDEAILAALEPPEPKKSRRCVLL
UniProt Q96G23: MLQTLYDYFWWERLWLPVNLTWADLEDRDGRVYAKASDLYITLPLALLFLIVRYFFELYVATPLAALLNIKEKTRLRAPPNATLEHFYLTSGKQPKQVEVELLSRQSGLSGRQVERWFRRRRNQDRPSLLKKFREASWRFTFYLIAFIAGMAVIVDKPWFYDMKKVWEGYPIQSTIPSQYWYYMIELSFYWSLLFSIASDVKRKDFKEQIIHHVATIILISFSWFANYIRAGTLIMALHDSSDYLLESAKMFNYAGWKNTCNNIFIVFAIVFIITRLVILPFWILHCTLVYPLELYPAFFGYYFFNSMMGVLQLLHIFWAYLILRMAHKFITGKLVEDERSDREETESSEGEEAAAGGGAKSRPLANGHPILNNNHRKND
UniProt O75419: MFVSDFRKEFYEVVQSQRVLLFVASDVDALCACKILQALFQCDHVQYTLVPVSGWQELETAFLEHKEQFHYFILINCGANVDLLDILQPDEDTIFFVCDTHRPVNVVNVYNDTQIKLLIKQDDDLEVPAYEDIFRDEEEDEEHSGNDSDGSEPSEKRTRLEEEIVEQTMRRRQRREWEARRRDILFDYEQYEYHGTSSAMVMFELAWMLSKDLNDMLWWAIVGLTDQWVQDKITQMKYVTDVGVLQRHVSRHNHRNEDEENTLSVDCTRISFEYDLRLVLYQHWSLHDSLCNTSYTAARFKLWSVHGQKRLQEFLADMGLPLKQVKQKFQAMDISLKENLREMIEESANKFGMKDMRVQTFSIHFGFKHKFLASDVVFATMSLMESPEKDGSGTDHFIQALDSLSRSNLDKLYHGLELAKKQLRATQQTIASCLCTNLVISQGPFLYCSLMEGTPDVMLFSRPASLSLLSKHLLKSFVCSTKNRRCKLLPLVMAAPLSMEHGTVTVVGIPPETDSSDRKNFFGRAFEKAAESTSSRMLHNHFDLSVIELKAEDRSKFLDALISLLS
UniProt Q9BS16: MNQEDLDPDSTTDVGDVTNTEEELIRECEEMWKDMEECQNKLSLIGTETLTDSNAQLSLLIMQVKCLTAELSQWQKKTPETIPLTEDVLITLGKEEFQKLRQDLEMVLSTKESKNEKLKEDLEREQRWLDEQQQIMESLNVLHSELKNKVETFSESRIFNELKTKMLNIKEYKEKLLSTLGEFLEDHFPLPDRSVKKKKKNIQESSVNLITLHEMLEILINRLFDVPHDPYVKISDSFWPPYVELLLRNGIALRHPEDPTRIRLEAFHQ
UniProt Q8NHZ8, whole entry, looked up: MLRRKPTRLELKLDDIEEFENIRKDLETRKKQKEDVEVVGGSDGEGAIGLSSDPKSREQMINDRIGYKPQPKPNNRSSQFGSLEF
UniProt Q71F23: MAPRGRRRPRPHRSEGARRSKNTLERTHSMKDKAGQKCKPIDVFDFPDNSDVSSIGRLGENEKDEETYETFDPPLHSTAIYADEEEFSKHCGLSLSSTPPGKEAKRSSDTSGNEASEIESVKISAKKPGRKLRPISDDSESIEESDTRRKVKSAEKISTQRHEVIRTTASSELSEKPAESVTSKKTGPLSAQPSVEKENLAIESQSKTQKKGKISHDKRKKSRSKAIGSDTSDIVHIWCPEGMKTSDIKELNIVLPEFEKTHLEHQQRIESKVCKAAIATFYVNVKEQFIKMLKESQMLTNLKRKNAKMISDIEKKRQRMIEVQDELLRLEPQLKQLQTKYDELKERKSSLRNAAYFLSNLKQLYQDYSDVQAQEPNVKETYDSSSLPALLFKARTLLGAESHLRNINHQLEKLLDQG
UniProt Q01850: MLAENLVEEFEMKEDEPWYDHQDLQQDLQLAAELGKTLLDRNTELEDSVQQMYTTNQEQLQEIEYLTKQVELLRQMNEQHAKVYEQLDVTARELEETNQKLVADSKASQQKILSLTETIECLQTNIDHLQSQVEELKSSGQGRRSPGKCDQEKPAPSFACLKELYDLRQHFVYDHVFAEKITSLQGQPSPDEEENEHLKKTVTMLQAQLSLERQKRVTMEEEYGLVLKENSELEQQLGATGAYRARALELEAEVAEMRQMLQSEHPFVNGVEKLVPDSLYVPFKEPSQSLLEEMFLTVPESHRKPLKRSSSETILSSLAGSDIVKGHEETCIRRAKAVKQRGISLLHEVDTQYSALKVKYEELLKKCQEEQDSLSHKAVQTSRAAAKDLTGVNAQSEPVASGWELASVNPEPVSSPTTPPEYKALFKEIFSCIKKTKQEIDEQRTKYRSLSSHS
UniProt O60508: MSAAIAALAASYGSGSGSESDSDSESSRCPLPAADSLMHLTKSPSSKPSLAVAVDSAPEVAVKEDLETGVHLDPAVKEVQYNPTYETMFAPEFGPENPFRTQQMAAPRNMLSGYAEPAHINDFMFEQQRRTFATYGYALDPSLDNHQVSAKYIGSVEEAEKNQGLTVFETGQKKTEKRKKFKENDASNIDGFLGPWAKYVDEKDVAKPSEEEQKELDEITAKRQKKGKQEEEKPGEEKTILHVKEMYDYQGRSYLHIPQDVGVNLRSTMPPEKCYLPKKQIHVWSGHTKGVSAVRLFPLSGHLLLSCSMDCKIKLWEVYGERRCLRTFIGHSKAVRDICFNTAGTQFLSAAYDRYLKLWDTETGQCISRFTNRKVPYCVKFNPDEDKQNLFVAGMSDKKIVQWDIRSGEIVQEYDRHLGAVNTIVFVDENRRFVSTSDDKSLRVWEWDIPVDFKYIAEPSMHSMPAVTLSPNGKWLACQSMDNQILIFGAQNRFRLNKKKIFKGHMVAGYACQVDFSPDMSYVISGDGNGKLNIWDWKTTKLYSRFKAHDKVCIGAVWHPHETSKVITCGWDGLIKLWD
UniProt P41208: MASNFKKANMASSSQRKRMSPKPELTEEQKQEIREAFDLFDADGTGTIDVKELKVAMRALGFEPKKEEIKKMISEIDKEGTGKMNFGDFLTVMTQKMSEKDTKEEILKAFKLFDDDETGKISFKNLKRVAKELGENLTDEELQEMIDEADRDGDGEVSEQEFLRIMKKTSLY
UniProt Q9UJX2, whole entry, looked up: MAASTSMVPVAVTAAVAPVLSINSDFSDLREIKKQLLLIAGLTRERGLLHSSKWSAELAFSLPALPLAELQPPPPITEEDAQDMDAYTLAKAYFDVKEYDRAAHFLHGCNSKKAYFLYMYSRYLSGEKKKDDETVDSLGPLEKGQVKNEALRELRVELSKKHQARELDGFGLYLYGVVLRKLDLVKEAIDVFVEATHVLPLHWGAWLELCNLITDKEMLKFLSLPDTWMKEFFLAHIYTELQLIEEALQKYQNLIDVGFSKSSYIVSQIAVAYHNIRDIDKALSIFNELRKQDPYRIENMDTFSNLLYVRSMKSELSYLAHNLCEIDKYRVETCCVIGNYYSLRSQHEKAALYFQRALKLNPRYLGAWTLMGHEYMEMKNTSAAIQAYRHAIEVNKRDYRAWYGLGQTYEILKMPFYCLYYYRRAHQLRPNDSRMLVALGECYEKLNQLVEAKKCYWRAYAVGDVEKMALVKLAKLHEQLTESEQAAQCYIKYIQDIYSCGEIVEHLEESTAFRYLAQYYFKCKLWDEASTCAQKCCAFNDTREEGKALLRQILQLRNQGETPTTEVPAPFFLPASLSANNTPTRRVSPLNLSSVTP
UniProt O14519: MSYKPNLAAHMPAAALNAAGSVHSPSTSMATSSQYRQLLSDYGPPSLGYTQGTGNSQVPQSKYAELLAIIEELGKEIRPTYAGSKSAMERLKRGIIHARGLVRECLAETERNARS
UniProt Q8N2Z9: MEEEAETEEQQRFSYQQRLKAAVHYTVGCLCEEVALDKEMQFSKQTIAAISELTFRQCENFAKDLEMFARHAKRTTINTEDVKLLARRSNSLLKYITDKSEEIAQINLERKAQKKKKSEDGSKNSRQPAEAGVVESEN
UniProt Q99459: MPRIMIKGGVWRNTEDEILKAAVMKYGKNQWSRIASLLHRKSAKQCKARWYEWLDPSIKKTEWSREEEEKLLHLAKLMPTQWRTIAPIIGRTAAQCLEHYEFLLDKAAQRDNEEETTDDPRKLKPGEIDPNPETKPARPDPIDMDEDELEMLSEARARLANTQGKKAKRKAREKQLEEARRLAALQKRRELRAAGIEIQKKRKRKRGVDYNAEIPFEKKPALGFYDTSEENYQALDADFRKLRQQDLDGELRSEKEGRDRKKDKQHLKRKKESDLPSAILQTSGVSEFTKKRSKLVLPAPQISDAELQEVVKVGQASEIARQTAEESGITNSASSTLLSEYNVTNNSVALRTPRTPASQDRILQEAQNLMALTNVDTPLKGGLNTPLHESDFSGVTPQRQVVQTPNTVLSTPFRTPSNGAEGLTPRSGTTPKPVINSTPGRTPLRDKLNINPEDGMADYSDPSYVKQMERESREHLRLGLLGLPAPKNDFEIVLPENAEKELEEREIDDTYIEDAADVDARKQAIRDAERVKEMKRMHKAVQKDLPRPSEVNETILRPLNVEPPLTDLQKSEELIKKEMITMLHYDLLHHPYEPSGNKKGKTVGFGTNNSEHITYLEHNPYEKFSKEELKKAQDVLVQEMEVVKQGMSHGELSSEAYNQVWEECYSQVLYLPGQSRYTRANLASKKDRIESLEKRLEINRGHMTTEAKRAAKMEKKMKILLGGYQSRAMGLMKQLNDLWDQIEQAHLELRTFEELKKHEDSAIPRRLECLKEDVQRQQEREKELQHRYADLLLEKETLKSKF

The targets below were run with Cc1cc(Nc2cc(N3CCN(C)CC3)nc(Sc3ccc(NC(=O)C4CC4)cc3)n2)n[nH]1 [tozasertib] (assay: log2 fold change, soluble protein after heating vs DMSO (PISA); higher = thermal stabilisation; K562 lysate, 10 uM; active = over 0.2 and 3.5 SD of the protein, either way, in both replicates (recomputed)).
In short: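 To prepare the extract, K562 pellets were dounce-homogenised in PBS pH 7.4 with 1 mM MgCl2, giving crude material at 1 mg/mL protein. This was treated with 10 μM compound for 30 min, then heated in aliquots for 3 min over 48°C-58°C before pooling and addition of NP-40 to 0.5% at 4°C. Centrifugation at 21,000xg for 90 min left soluble protein in the supernatant, which TMTpro 16plex LC-MS/MS quantified with equalised channel sums. Results are log-two fold changes in thermal stability compared with solvent controls, from duplicates.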

log2 fold change, inactive:
CEP350 (UniProt Q5VT06) 0.038
CEP170 (UniProt Q5SW79) 0.024
CFH (UniProt P08603) 0.011
CFL2 (UniProt Q9Y281) 0.082
CFDP1 (UniProt Q9UEE9) -0.032
CEP97 (UniProt Q8IW35) 0.026
CDCA3 (UniProt Q99618) 0.098
CDC42 isoform 1 (UniProt P60953) -0.011
CENPH (UniProt Q9H3R5) 0.018
CERS2 (UniProt Q96G23) -0.017
CDC45 isoform 3 (UniProt O75419) 0
CFL1 (UniProt P23528) -0.027
CENPK (UniProt Q9BS16) -0.047
CDCP1 (UniProt Q9H5V8) -0.013
CDC26 (UniProt Q8NHZ8) 0.06
CENPU (UniProt Q71F23) -0.04
CDC42BPB (UniProt Q9Y5S2) 0.107
CEP85 isoform 2 (UniProt Q6P2H3) -0.019
CDKAL1 (UniProt Q5VV42) 0.006
CEP135 (UniProt Q66GS9) 0.114
CDK19 (UniProt Q9BWU1) 0.153
CEP76 (UniProt Q8TAP6) 0.079
CDIPT (UniProt O14735) -0.016
CDR2 (UniProt Q01850) 0.026
CDC40 (UniProt O60508) -0.038
CDC42 (UniProt P60953) -0.01
CETN2 (UniProt P41208) -0.061
CDC23 (UniProt Q9UJX2) -0.005
CDK2AP1 (UniProt O14519) -0.051
CDC37L1 (UniProt Q7L3B6) 0.04
CENPS (UniProt Q8N2Z9) -0.069
CDC5L (UniProt Q99459) 0.009
CERS6 isoform 2 (UniProt Q6ZMG9) 0.132

Quoted at random: 2 entries already listed.
log2 fold change, inactive:
CDC42 isoform 1 (UniProt P60953) -0.011
CEP170 (UniProt Q5SW79) 0.024
